Laboratory results taken from paper PMC5709413.
Results are given in words; binding and its absence hold for the method and conditions named. In cells and extracts the contact can be indirect. Here binding means that the protein was enriched with, or labelled near, the bait; the list need not be complete. Where a sequence is shown, tags or fusion partners need not be part of it.

Sequences of proteins named here, by UniProt entry; tags and fusion partners are left off.
UniProt Q8CGC7: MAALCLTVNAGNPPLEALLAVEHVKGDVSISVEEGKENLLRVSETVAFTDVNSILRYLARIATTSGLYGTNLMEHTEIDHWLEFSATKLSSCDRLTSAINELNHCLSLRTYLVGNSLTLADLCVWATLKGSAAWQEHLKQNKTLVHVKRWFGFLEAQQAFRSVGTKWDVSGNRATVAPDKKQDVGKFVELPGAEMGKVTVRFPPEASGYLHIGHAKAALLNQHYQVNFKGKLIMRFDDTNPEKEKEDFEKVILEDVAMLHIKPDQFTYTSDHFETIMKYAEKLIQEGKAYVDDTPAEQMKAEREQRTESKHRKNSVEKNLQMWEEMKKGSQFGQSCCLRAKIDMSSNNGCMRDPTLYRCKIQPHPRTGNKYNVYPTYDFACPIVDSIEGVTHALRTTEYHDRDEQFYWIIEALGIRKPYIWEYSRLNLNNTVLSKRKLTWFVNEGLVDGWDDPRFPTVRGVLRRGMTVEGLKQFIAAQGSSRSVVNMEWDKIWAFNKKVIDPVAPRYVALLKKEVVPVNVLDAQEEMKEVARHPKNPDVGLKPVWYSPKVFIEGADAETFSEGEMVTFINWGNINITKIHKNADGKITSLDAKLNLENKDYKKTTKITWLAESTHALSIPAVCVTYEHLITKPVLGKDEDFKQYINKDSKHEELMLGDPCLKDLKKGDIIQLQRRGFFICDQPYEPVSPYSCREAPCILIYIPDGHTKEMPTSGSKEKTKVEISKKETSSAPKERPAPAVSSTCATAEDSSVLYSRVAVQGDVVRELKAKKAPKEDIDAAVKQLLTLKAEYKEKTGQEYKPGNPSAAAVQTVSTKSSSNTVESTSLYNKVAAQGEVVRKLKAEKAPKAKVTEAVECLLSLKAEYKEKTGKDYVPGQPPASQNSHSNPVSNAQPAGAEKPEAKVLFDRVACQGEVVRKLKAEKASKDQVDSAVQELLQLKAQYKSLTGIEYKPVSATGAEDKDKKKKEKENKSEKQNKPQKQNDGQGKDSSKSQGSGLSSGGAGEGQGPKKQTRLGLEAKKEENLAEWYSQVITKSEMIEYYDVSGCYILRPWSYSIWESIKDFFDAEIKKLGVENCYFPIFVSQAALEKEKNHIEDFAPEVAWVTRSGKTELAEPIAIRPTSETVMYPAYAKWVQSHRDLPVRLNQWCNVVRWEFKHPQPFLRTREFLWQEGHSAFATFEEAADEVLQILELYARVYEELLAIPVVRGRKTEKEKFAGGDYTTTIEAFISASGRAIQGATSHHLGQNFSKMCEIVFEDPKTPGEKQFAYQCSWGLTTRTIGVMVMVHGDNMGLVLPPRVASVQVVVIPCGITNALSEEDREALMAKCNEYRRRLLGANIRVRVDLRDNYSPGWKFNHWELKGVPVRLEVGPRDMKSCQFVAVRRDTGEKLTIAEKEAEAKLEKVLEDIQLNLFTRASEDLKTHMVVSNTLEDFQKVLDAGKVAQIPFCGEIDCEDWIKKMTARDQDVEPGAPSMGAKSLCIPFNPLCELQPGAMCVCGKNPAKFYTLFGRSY
UniProt P27546: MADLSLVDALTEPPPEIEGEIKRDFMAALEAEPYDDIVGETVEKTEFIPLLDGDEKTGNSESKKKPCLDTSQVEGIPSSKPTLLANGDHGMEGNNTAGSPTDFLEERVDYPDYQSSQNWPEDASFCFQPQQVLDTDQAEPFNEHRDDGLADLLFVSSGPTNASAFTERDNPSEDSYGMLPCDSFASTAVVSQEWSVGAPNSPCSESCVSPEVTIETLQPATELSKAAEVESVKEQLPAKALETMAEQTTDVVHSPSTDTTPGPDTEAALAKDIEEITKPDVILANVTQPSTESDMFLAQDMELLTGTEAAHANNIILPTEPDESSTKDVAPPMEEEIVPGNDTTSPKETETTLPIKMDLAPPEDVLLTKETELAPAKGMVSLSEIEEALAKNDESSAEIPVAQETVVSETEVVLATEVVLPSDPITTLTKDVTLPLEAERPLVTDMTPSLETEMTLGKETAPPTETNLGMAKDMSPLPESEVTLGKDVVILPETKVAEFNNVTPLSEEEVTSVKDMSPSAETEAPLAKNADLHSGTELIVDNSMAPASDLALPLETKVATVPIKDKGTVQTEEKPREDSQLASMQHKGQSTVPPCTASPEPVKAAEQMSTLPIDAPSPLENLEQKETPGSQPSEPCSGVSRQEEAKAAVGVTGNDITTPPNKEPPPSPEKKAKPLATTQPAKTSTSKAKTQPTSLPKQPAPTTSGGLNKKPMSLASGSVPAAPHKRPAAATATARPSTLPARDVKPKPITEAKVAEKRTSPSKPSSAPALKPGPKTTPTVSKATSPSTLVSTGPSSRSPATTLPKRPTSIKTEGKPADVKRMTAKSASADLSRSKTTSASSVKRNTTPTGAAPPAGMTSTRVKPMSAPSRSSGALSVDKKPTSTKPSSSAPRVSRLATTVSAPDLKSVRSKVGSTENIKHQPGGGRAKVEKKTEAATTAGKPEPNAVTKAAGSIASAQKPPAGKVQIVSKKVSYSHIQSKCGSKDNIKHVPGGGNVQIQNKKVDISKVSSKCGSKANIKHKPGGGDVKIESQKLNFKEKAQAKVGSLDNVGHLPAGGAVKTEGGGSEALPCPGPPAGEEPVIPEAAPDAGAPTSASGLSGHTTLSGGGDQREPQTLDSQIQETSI

Target: T1, GST-BEX1 (brain-expressed X-linked protein 1 fused to glutathione-S-transferase) (UniProt Q9R224)
T1 sequence: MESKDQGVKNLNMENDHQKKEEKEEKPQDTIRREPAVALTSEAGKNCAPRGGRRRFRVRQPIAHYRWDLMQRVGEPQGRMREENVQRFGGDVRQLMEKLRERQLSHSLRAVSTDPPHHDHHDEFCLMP
Assay: affinity purification with mass spectrometry; GST chromatography: heart protein extracts incubated with GST-BEX1 or GST only; eluted partners on silver-stained gels, bands identified by MALDI mass spectrometry; only the target purified

binding | Substance
binds | Glutamyl-Prolyl-tRNA Synthetase (EPRS) (from UniProt Q8CGC7 1-1512)
binds | Microtubule-Associated Protein 4 (MAP4) (from UniProt P27546 1-1125)
